Each structure is given as a SMILES string. Where two headings read alike, the source gives them in different places. The match of structure and compound is tentative.

A word on the IC50: it is the point on the concentration scale where inhibition reaches its midpoint.

The assay deals with MMP-13CD (catalytic domain of collagenase 3) (Homo sapiens, UniProt P45452). Briefly: Thiopeptolide hydrolysis assay, MMP-13.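 Further: inhibition of enzymatic thiopeptolide substrate cleavage (100 µM) in pH 6.0 MES buffer with CaCl2 and DTNB, comparing hydrolysis with versus without inhibitor.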
Setting [1] is: read-out: MMP13 IC50 μM, Table IVb.

Regarding `Cn1c(=O)n(Cc2ccccc2)c(=O)c2cc(C(=O)NCc3ccc(O)cc3)ccc21`, the IC50 under setting [1] was 0.02 µM.
Regarding `Cn1c(=O)n(Cc2ccncc2)c(=O)c2cc(C(=O)NCc3ccc4c(c3)OCO4)ccc21`, under setting [1], the IC50 was 0.011 µM.
On to `COc1ccc(CNC(=O)c2ccc3c(c2)c(=O)n(CCC(=O)O)c(=O)n3C)cc1`, for which the IC50 under setting [1] was found to be 9.7 µM.
Consider `COc1ccc(CNC(=O)c2ccc3c(c2)c(=O)n(Cc2ccc(C(=O)OCC(C)(C)CN(C)C)cc2)c(=O)n3C)cc1`, for which the IC50 under setting [1] was 0.06 µM.
As for `COc1ccc(CNC(=O)c2ccc3c(c2)c(=O)n(Cc2ccncc2)c(=O)n3C)cc1`, the IC50 under setting [1] is 0.021 µM.
In the case of `Cc1ccc(-n2c(=O)[nH]c3sc(C(=O)OCc4ccccc4)c(C)c3c2=O)cc1`, under “read-out: MMP 13 IC50 μM, Table III”, the IC50 was 10 µM.
As to `COc1ccc(CNC(=O)c2ccc3c(c2)c(=O)n(Cc2ccc(N(S(C)(=O)=O)S(C)(=O)=O)cc2)c(=O)n3C)cc1`, under setting [1], the IC50 amounted to 0.075 µM.
For the compound `COc1ccc(CNC(=O)c2ccc3c(c2)c(=O)n(Cc2ccc(OC)c(F)c2)c(=O)n3C)cc1`, the IC50 under setting [1] was 0.0058 µM.

(Values after US20050004126A1 (priority 2001, published 2005).)
